# Reference: PubChem BioAssay AID540335 (Broad Institute, 2011)
# The whole screen tested about 1,300 compounds, of which about 270 (21%) were called active.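 How the source made its calls: active means dose-dependent rise or fall in viability, either side of zero, with half-maximal concentration at or below a set limit; inconclusive means flat curve at 30 to 70% viability loss, or poor fit; inactive means flat within 30% either way, or potency beyond limit.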 Some of the results follow. Entries with a potency or affinity are not part of this list.
# Test: proliferation inhibition in MITF-low A375 cells – cell-based, cherry-pick samples, set 2, counter-screen for MITF modulator project, dose response (AID 540335);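 further: A375 human melanoma cells which do not depend on MITF; 0% = median of neutral control wells and 100% = double that signal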
# Settings: CellTiter-Glo ATP luminescence, 24 h; at 35 µM (top of the series)
row,Compound,"activity change, negative = decreased viability"
1,O=C1c2ccccc2C(=O)N1CCOc1ccccc1,inactive: -1.42%
2,CN1C/C(=C/c2cccnc2)C(=O)/C(=C/c2cccnc2)C1,inactive: 45.4%
3,CCN(CC)S(=O)(=O)c1cccc(C(=O)N/N=C(\C)c2ccc(O)cc2O)c1,inactive: -32.2%
4,OCCNc1c2ccccc2nc2c(F)c(F)c(F)c(F)c12,inactive: -3.67%
5,COc1cccc(C(=O)N/N=C(/c2ccccc2)c2ccccn2)c1,inactive: -35.3%
6,COc1ccc(-c2noc(-c3cccs3)n2)cc1OC,inactive: -0.394%
7,S=c1[nH]nc(-c2ccco2)n1/N=C/C(Cl)=C/c1ccccc1,inactive: 8.32%
8,COc1cc(/C=N/N=C(N)N)ccc1OCc1ccc(Cl)cc1,inactive: -96.4%
9,CNC(=O)COC(=O)c1ccccc1C(=O)c1ccc(Cl)c([N+](=O)[O-])c1,inactive: 50.1%
10,O=C(Nc1ccc(F)c(Cl)c1)c1ccc2c(c1)OCO2,inactive: 7%
11,COC(=O)[C@@H](C)NC(=O)c1ccc2oc(CCc3ccccc3)nc2c1,inactive: 1.95%
12,Nc1ccc2c(c1)OC1(CCCC1)O2,inactive: -5.61%
13,Cc1cc(C)c2c(N)c(C(=O)N/N=C/c3cccnc3)sc2n1,inactive: 11.6%
14,O=[N+]([O-])c1ccc(/C=N/Nc2ccnc3cc(Cl)ccc23)o1,inactive: -13.7%
15,NC(=O)C1CCN(C2=C(NS(=O)(=O)c3ccc(Br)cc3)C(=O)c3ccccc3C2=O)CC1,inactive: -10.2%
16,COc1ccccc1C(=O)Nc1nc(-c2ccc(S(=O)(=O)N3CCOCC3)cc2)cs1,inactive: -9.48%
17,COc1ccc(NC(=O)Nc2ccc(F)c(F)c2)c(OC)c1,inactive: 16.1%
18,Cc1ccc(C(=O)Nc2nc3ccc(Cl)cc3s2)o1,inactive: -6.8%
19,CC(=O)N/C(N)=N/c1nc(=O)c2ccccc2s1,inactive: 11.6%
20,CN=c1scc(-c2ccccc2F)n1/N=C/c1ccc[nH]1,inactive: -31.4%
21,Cc1ccc(NCC(=O)N/N=C\c2ccc([N+](=O)[O-])o2)cc1,inactive: -7.59%
22,O=C(/C=C/c1ccc([N+](=O)[O-])s1)N1CCCC1,inactive: -14.7%
23,COc1ccc2oc(C(=O)Nc3ccc(S(=O)(=O)N(C)C4CCN(C)CC4)cc3)c(C)c2c1,inactive: -26.3%
24,O=C(O)C1CCN(C(=O)OCc2ccccc2)CC1,inactive: 3.83%

# Grouped by structure: the compounds so far containing nitrogen in an aromatic ring (twelve)
row,Compound,"activity change, negative = decreased viability"
2,CN1C/C(=C/c2cccnc2)C(=O)/C(=C/c2cccnc2)C1,inactive: 45.4%
4,OCCNc1c2ccccc2nc2c(F)c(F)c(F)c(F)c12,inactive: -3.67%
5,COc1cccc(C(=O)N/N=C(/c2ccccc2)c2ccccn2)c1,inactive: -35.3%
6,COc1ccc(-c2noc(-c3cccs3)n2)cc1OC,inactive: -0.394%
7,S=c1[nH]nc(-c2ccco2)n1/N=C/C(Cl)=C/c1ccccc1,inactive: 8.32%
11,COC(=O)[C@@H](C)NC(=O)c1ccc2oc(CCc3ccccc3)nc2c1,inactive: 1.95%
13,Cc1cc(C)c2c(N)c(C(=O)N/N=C/c3cccnc3)sc2n1,inactive: 11.6%
14,O=[N+]([O-])c1ccc(/C=N/Nc2ccnc3cc(Cl)ccc23)o1,inactive: -13.7%
16,COc1ccccc1C(=O)Nc1nc(-c2ccc(S(=O)(=O)N3CCOCC3)cc2)cs1,inactive: -9.48%
18,Cc1ccc(C(=O)Nc2nc3ccc(Cl)cc3s2)o1,inactive: -6.8%
19,CC(=O)N/C(N)=N/c1nc(=O)c2ccccc2s1,inactive: 11.6%
20,CN=c1scc(-c2ccccc2F)n1/N=C/c1ccc[nH]1,inactive: -31.4%

# Additional records follow.

row,Compound,"activity change, negative = decreased viability"
1,COc1cc2nc(SCC(=O)NCc3ccco3)n(Cc3ccc(Cl)cc3)c(=O)c2cc1OC,inactive: -6.5%
2,Cc1ccc(COc2ccc(C)nc2[N+](=O)[O-])cc1,inactive: 0.699%
3,O=C(/C=C/c1ccc2c(c1)OCO2)N1CCCCC1,inactive: -0.046%
4,Nc1c(-c2ccccc2)cnc2c(-c3ccccc3)cnn12,inactive: -3.09%
5,CN(C)Cc1c(O)ccc2c1O/C(=C\C=C\c1ccccc1)C2=O,inactive: 3.6%
6,O=C(CCl)Nc1cccc(Oc2ccccc2)c1,inactive: -29.8%
7,Cc1[nH]nc(Nc2ccc(Br)cc2)c1[N+](=O)[O-],inactive: -6.02%
8,Cc1onc(-c2ccccc2)c1C(=O)N/N=C/c1ccc([N+](=O)[O-])s1,inactive: -12.4%
9,C(=N\Nc1cc(N2CCCCC2)ncn1)/c1ccco1,inactive: -3.19%
10,CC(C)C(CCNC1CCN(C)CC1)c1ccc(Cl)cc1 (centres undefined),inactive: -4.07%
11,C/C(=C\c1ccccc1)C(=O)Nc1ccc(Cl)cn1,inactive: 3.5%
12,Nc1nc2ccccc2n1/N=C/c1ccc([N+](=O)[O-])s1,inactive: -21%
13,O=C(CCl)N(Cc1cc(=O)[nH]c2ccccc12)c1ccccc1,inactive: 0.396%
14,CC(NC(=O)c1ccc([N+](=O)[O-])o1)C12CC3CC(CC(C3)C1)C2 (centres undefined),inactive: 15.9%
15,CC1Cc2cc(-c3csc(N)n3)ccc2O1 (centres undefined),inactive: 1.86%
16,Cc1ccc(-c2n[nH]c(=O)c3ccccc23)cc1S(=O)(=O)NCC1CCCO1 (centres undefined),inactive: 8.17%
17,COc1ccc(C)cc1Nc1nc(N)c2cc(OC)c(OC)cc2n1,inactive: -21.9%
18,Cc1ccc(NC(=O)c2cc(-c3cccs3)on2)cc1,inactive: 7.41%
19,COc1ccc(C(=O)N/N=C/c2cc(Br)ccc2O)cc1OC,inactive: -39.9%
20,CN(C)c1ccc(/C=N\NC(=O)c2cccc3cc[nH]c23)cc1,inactive: 6.58%
21,CC(C)CN=C(NS(=O)(=O)c1ccccc1)C(Cl)(Cl)Cl,inactive: -34.1%
22,O=[N+]([O-])c1cc(S(=O)(=O)N2CCCCCC2)ccc1F,inactive: -19.8%
23,CCN(CC)CCNC(=O)C1CCN(S(=O)(=O)c2c(C)noc2/C=C/c2ccccc2F)CC1,inactive: -10.5%
24,COc1ccc(C(=O)/C=C/C(=O)N(CC(=O)NC2CCCCC2)Cc2ccccc2OC)c(O)c1,inactive: -5.15%

row,Compound,"activity change, negative = decreased viability"
1,O=C(Nc1ccc(Cl)c(S(=O)(=O)N2CCOCC2)c1)c1ccc(OCC2CCCO2)cc1 (centres undefined),inactive: -37.8%
2,N#Cc1cnn2cc(CCN3CCOCC3)c(-c3ccc(F)cc3)nc12,inactive: 7.97%
3,Nc1c(N(CCC2=CCCCC2)C(=O)COc2ccc(F)cc2)c(=O)[nH]c(=O)n1Cc1ccccc1,inactive: -37.6%
4,Cn1nnnc1Sc1ncnc2scc(-c3ccc[nH]3)c12,inactive: -11.1%
5,COc1ccc(C(=O)/C=C/C(=O)N(CC(=O)NC2CCCCC2)CC2CCCO2)c(O)c1 (centres undefined),inactive: -33.5%
6,Cc1cc(C)c(C#N)c(SCc2nnc(-c3ccccc3)o2)n1,inactive: 6.03%
7,O=C(Nc1cccnc1Cl)c1cc(-c2ccco2)on1,inactive: 7.02%
8,CCOC(=O)CSC1=NC(=O)/C(=C\c2ccc(Cl)cc2)S1,inactive: -2.2%
9,CCn1c(/C=C/N(C)c2ccccc2)[n+](CC)c2ccc(Cl)cc21,inactive: -36.6%
10,COc1ccc(-n2ncc3c(N4CCCCC4)ncnc32)cc1,inactive: -28.9%
11,COc1ccc(C(=O)/C=C/C(=O)N(CC(=O)NC2CCCCC2)Cc2ccccc2)c(O)c1,inactive: -10.6%
12,C1CCC(C(CC2CCCCN2)C2CCCCC2)CC1 (centres undefined),inactive: -92.8%
13,Cc1ccc2nc3cc([N+](=O)[O-])cc([N+](=O)[O-])c3cc2c1,inactive: 3.06%
14,O=C(N/N=C\c1ccc([N+](=O)[O-])o1)C1COc2ccccc2O1 (centres undefined),inactive: -6.08%
15,CCOc1ccccc1NC(=O)C(=O)N/N=C/c1cc(Br)ccc1O,inactive: -30.9%
16,CCC(=O)OCCNc1cc(Sc2nc3ccccc3[nH]2)c2nonc2c1[N+](=O)[O-],inactive: 24.5%
17,Cc1ccsc1C(=O)OCC(=O)Nc1sccc1C(N)=O,inactive: -10.9%
18,Cc1cc(C)nc(S/C=C/C(=O)c2ccccc2F)n1,inactive: -20.2%
19,C=C1C(=O)C=C[C@]2(C)C[C@@H]3OC(=O)[C@](C)(O)[C@H]3C[C@@H]12,inactive: -1.56%
20,CCN1c2ccccc2NC2C1C(C(C)=O)C(=O)N2c1ccc(Cl)cc1 (centres undefined),inactive: -2.02%
21,Brc1cccc(/C=N/Nc2nn[nH]n2)c1,inactive: 2.47%
22,CCC1CCCCN1CCCNC(=O)c1cn(CC)c2ccc(S(=O)(=O)N(C)C3CCCCC3)cc2c1=O (centres undefined),inactive: 10.2%
23,CC(=O)OCCNc1cc(Sc2nc3ccccc3[nH]2)c2nonc2c1[N+](=O)[O-],inactive: 1.78%
24,CC(C)[C@H](NC(=O)OC(C)(C)C)c1nnc(S(=O)(=O)Cc2c(F)cccc2Cl)o1,inactive: 94.5%

row,Compound,"activity change, negative = decreased viability"
1,COc1ccc(/C=C/C(=O)NC(=S)N2CCN(c3ccccc3OC)CC2)cc1,inactive: 2.37%
2,Cc1cc(C)c2c(N)c(C(=O)N/N=C/c3ccccc3)sc2n1,inactive: 12.6%
3,COC(=O)CSC1=C(C#N)C(=O)NC(c2ccccc2)S1 (centres undefined),inactive: 49%
4,C=CCn1c(C)cc(C2=NNC(=NC(C)(C)C)SC2)c1C,inactive: -8.51%
5,O=C(Nc1ccc(N2CCOCC2)c(Cl)c1)c1cccc(F)c1,inactive: 9.79%
6,COCn1c(COc2ccccc2)nc2ccccc21,inactive: -21.5%
7,Nc1nnnn1/N=C/C(Br)=C/c1ccccc1,inactive: -22.9%
8,COc1ccc(CCn2c(=S)[nH]c3cc(C(=O)NCc4ccco4)ccc3c2=O)cc1OC,inactive: -33.1%
9,Cc1cccc(NC(=O)c2cnn(-c3ccccc3)c2C)c1C,inactive: 16.8%
10,COc1cc([N+](=O)[O-])cc(/C=N/NC(=O)c2ccc(NC(=O)c3ccc(C)cc3)cc2)c1O,inactive: -6.25%
11,O=C(O)CSCC(=O)Nc1ccc(C2CCCCC2)cc1,inactive: -1.99%
12,Nc1c2c(=O)oc(-c3ccccc3)cc2nn1-c1ccccc1,inactive: 1.59%
13,CCCCC[n+]1ccn(C2=C([O-])c3ccccc3C(=O)/C2=N\S(=O)(=O)c2ccccc2)c1,inactive: -11%
14,COCc1cc(C)nc2sc(C(=O)Nc3ccc(OC)cc3)c(N)c12,inactive: -2.81%
15,O=C(Nc1ccc(Br)cc1)c1ccc2c(c1)OCO2,inactive: 8.84%
16,Nc1ccc(-c2cc3ccccc3c(=O)o2)cc1,inactive: -1.07%
17,CCOC(=O)N1CCN(C(=O)c2ccc(Cn3c(=S)[nH]c4ccc(Br)cc4c3=O)cc2)CC1,inactive: -24.5%
18,CC(=O)N(c1nnc(-c2cccc(C)c2)s1)C1CCCC1,inactive: 7.34%
19,Cc1cc(C)cc(NC(=O)c2ccc([N+](=O)[O-])o2)c1,inactive: -28%
20,CC(C)C(=O)Nc1cccc(NC(=O)c2cc3ccccc3o2)c1,inactive: 6.6%
21,COc1ccc(C2C(C#N)=C(N)Oc3c2oc(CO)cc3=O)cc1 (centres undefined),inactive: 7.94%
22,O=C(/C=C/c1ccc(Cl)c([N+](=O)[O-])c1)c1ccc(O)cc1,inactive: 24.9%

# Quoted from the listing.
# For activity change, negative = decreased viability, C/C(=C\c1ccccc1)C(=O)Nc1ccc(Cl)cn1 reads inactive: 3.5%
# For activity change, negative = decreased viability, Cc1ccc(C(=O)Nc2nc3ccc(Cl)cc3s2)o1 reads inactive: -6.8%
